No constants are given. Whether binding was seen depends on the method and setting. Binding seen in cells or lysates may run through a third protein. Here binding means that the protein was enriched with, or labelled near, the bait; the list need not be complete.
Molecular target: methyltransferase-like 14 (METTL14), endogenous (human (endogenous in HUVECs)) (UniProt Q9HCE5)
Assay: affinity purification with mass spectrometry; endogenous METTL14 complex precipitated with anti-METTL14 beads (blocked agarose beads as negative control), 4 °C, 1 mg input protein, SDS-PAGE, silver stain, LC-MS/MS; results say HUVECs, methods say 293T nuclear extracts

Chains of the proteins cited; added tags and fusions are not shown.
UniProt Q9HCE5: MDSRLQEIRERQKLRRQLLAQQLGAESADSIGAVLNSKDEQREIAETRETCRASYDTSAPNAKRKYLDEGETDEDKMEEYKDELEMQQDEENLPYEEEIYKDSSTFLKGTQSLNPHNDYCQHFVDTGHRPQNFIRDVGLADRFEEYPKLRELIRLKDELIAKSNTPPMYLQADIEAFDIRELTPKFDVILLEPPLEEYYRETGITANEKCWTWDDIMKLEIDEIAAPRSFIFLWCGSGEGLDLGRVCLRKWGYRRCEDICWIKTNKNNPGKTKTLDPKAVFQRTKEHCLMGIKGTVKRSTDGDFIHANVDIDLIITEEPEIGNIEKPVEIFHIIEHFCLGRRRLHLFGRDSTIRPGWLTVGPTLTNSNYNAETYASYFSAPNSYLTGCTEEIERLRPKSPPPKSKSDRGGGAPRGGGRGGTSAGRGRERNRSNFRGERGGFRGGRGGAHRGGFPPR
UniProt Q12778: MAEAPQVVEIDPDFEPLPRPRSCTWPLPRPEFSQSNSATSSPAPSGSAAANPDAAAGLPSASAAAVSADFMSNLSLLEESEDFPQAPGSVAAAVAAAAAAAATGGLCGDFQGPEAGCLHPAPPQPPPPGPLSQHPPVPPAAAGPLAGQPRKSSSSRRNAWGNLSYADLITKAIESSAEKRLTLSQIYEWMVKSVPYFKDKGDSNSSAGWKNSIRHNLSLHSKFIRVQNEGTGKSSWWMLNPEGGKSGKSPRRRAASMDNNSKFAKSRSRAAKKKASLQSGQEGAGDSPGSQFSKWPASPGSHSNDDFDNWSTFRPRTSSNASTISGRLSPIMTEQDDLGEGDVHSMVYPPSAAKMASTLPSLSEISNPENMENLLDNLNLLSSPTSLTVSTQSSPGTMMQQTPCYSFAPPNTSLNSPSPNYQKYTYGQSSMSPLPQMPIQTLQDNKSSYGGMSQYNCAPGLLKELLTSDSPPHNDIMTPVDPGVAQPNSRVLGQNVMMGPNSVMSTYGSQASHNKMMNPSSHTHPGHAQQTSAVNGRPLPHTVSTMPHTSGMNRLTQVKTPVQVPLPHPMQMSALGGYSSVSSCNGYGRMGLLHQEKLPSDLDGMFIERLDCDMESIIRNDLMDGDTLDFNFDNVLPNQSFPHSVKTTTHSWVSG

“forkhead box O1 (FOXO1), endogenous (from UniProt Q12778 1-655)” was tested, and the binding was “binds”.
